Laboratory results published in patent US20090149339A1.
Results are given in words; binding and its absence hold for the method and conditions named. Some entries that bind do so weakly or less than the wild type.

How the values were obtained:
[1] = target: GST-PSD95 PDZ domain fusion protein (human post-synaptic density protein 95 AA387-724; PDZ domains 1-3 of 3) (human) [GST: P08515]; assay: A/G assays (told in text)
[2] = target: GST-AF6 PDZ domain fusion protein (af-6 protein AA985-1077; PDZ domain 1 of 1) [GST: P08515]; assay: A/G assays (told in text)
[3] = target: GST-NeDLG PDZ domain fusion protein (presynaptic protein sao102, neuroendocrine-dlg; PDZ domains 1-2 of 3) [GST: P08515]; assay: A/G assays (told in text)
[4] = target: GST-41.8 kD PDZ domain fusion protein (hypothetical 41.8 kD protein AA4-85; PDZ domain 1 of 1) [GST: P08515]; assay: A/G assays (told in text)
[5] = target: GST-PSD95 PDZ domain fusion protein (human post-synaptic density protein 95 AA387-724; PDZ domains 1-3 of 3) (human) [GST: P08515]; assay: A assay
[6] = target: GST-AF6 PDZ domain fusion protein (af-6 protein AA985-1077; PDZ domain 1 of 1) [GST: P08515]; assay: A assay
[7] = target: GST-NeDLG PDZ domain fusion protein (presynaptic protein sao102, neuroendocrine-dlg; PDZ domains 1-2 of 3) [GST: P08515]; assay: A assay
[8] = target: GST-41.8 kD PDZ domain fusion protein (hypothetical 41.8 kD protein AA4-85; PDZ domain 1 of 1) [GST: P08515]; assay: A assay

Measured: binding

CAISGTSSDRGYGSPRYAEV (N-terminal biotin) [CLASP-4 C-terminal PL peptide AA3L-V, biotinylated]
binds: all assays above
